# How the values were obtained:
# FAR-1 = assay: Fluorescence titration, FAR•analyte complex formation in homogeneous solution; assay type: binding
# Description: (§1) Fluorescence titrations were carried out in aqueous HEPES buffer (10 mM, pH 7, 22 °C) unless stated otherwise. To a solution of the FAR (typically at 10–30 μM) was stepwise added a solution of the analyte (typically up to 2 mM) and the fluorescence spectra were recorded. The normalized emissions at 450 nm (FAR-1) or at 370 nm (FAR-2) were fitted with an equation for a 1 : 1 binding by a least-square fit. The resulting affinity constants are reported in Supplementary Table 1. Representative titration plots are shown in Supplementary Fig. 1. Note that the high CB8-dye binding affinities correspond to a near quantitative degree of host-dye complexation, i.e., quantitative formation of the FAR, such that the subsequent binding of the analyte can be treated independently.
# FAR-2 = assay: as above; assay type: binding
# Description: as §1, with “1.” for “1. Note that the high CB8-dye binding affinities correspond to a near quantitative degree of host-dye complexation, i.e., quantitative formation of the FAR, such that the subsequent binding of the analyte can be treated independently.”
# [1] = Binding to CB7 (dye-displacement titrations, ITC, literature); conditions: dye-displacement titration
# [2] = FAR-1, 10 mM HEPES buffer (pH 7)
Structure (SMILES),QE (quenching efficiency) (FAR-1; [2]),QE (quenching efficiency) (FAR-2),further results
"O=C1C=CC(=O)C=C1 [1,4-benzoquinone]",> 0.9,–,–
"Oc1ccc(O)cc1 [1,4-dihydroxybenzene]",–,> 0.9,–
"Oc1ccc2cc(O)ccc2c1 [2,6-dihydroxynapthalene]",–,> 0.9,–
"Oc1ccc2ccc(O)cc2c1 [2,7-dihydroxynapthalene, 2,7-dihydroxynaphthalene]",–,> 0.9,–
Oc1ccc2ccccc2c1 [2-naphthol],–,> 0.9,–
"N#Cc1ccccc1O [2CN-phenol, 2-cyanophenol]",–,> 0.9,–
CCOc1ccc(O)cc1 [4-ethoxyphenol],–,> 0.9,–
COc1ccc(O)cc1 [4-methoxyphenol],–,> 0.9,–
"N#Cc1ccc(O)cc1 [4CN-phenol, 4-cyanophenol]",–,> 0.9,–
"Oc1ccc(I)cc1 [4I-phenol, 4-iodophenol]",–,> 0.9,–
"Nc1ccccc1 [Aniline, aniline]",0.9,> 0.9,–
"c1ccc2[nH]ccc2c1 [Indole, indole]",–,> 0.9,–
"CN(C)Cc1ccccc1 [N,N-dimethylbenzylamine]",–,–,QE (total change in fluorescence intensity upon complete displacement of the dye) ([1]; dye PAL): > 0.9
"N[C@@H](Cc1ccccc1)C(=O)O [Phe, phenylalanine]",–,–,QE (total change in fluorescence intensity upon complete displacement of the dye) ([1]; dye AO): > 0.9
"Oc1ccccc1 [Phenol, phenol]",–,> 0.9,QE (quenching efficiency) (FAR-1; pH 7): > 0.9
"NCCc1c[nH]c2ccc(O)cc12 [Serotonin, serotonin]",> 0.9,–,–
"N[C@@H](Cc1c[nH]c2ccccc12)C(=O)O [Trp, tryptophan]",–,> 0.9,–

Structure (SMILES),QE (quenching efficiency) (FAR-1; [2]),QE (quenching efficiency) (FAR-2),further results
"NCCc1c[nH]c2ccccc12 [Tryptamine, tryptamine]",> 0.9,–,QE (total change in fluorescence intensity upon complete displacement of the dye) ([1]; dye DAPI): 0.8
c1ccccc1 [benzene],< 0.3,–,–
NCCCCCN [cadaverine],–,–,QE (total change in fluorescence intensity upon complete displacement of the dye) ([1]; dye AO): > 0.9
O=C(O)Cc1cc(O)ccc1O [homogentisic acid],> 0.9,–,–
"COc1ccc2cc([C@H](C)C(=O)O)ccc2c1 [naproxen, reference compound]",0.5,–,–
CN1CCC[C@H]1c1cccnc1 [nicotine],–,–,QE (total change in fluorescence intensity upon complete displacement of the dye) ([1]; dye BE): 0.9
COc1ccc(B(O)O)cc1 [p-anisylboronic acid],–,> 0.9,–
NCCc1ccccc1 [phenethylamine],0.4,–,QE (total change in fluorescence intensity upon complete displacement of the dye) ([1]; dye AO): > 0.9
CCCN(CCOc1c(Cl)cc(Cl)cc1Cl)C(=O)n1ccnc1 [prochloraz],0.7,–,–
CCC(=O)Nc1ccc(Cl)c(Cl)c1 [propanil],> 0.9,–,–
"CC(C)NCC(O)COc1cccc2ccccc12 (stereo not shown) [propranolol, reference compound]",> 0.9,–,–
C=C(C)[C@H]1Cc2c(ccc3c2O[C@@H]2COc4cc(OC)c(OC)cc4[C@@H]2C3=O)O1 [rotenone],0.7,–,–
Oc1ccc2c(c1)OCO2 [sesamol],–,> 0.9,–
NCCCNCCCCNCCCN [spermine],–,–,QE (total change in fluorescence intensity upon complete displacement of the dye) ([1]; dye BE): 0.9
NCCc1ccc(O)cc1 [tyramine],–,–,QE (total change in fluorescence intensity upon complete displacement of the dye) ([1]; dye DAPI): 0.8
Cc1ncc(C[n+]2csc(CCO)c2C)c(N)n1 [vitamin B1],–,–,QE (total change in fluorescence intensity upon complete displacement of the dye) ([1]; dye PAL): > 0.9
